From the supplement of paper PMC6078165
Values are relative to the signal before dosing, not to a vehicle control; the signal also falls without drug.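 Fibroblast labels denote human fibroblasts, mainly primary ones from uterus (C12385, HUF), lung (H6013), bone (Hs27A), adrenal (HADF) and skin (WS1), plus mammary HMF and breast cancer-associated Hs343T. Cancer cells are basal-like or mesenchymal-like triple-negative breast cancer lines. A hit is a response shift exceeding 3x replicate standard deviation. The tissue of the other fibroblasts is not given here.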

System: MDAMB436
Experiment: relative JC-1 red fluorescence (viability) vs pre-drug, coculture with fibroblast (fraction); higher = more viable cancer cells
Method: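 JC-1 labelled TNBC cells cocultured 1:1 (1,500 cells each) with CellTrace Violet stained primary or stromal fibroblasts in 384-well plates in FluoroBrite medium, treated with one of 42 anticancer drugs at 0.1, 1, 10 or 100 uM. JC-1 red fluorescence (mitochondrial integrity in cancer cells only) was read by plate reader every 8 h for 72 h. Values are normalised to each well's pre-drug value. The stock of one drug was tenfold lower, so its dose labels may be too high.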

CC/C(=C(\c1ccccc1)c1ccc(OCCN(C)C)cc1)c1ccccc1 [Tamoxifen]
relative JC-1 red fluorescence
Conditions | 8 h | 16 h | 24 h | 32 h | 40 h | 48 h | 56 h | 64 h | 72 h
1 µM, coculture fibroblast: C12385 | – | – | – | – | – | 0.538 | 0.517 | 0.4985 | 0.485
1 µM, coculture fibroblast: H6013 | – | – | – | – | – | 0.871 | 0.839 | 0.82 | 0.761
1 µM, coculture fibroblast: H6019 | – | – | – | – | – | 0.5709 | 0.5301 | 0.5002 | 0.4671
1 µM, coculture fibroblast: H6076 | – | – | – | – | – | 0.651 | 0.658 | 0.642 | 0.629
1 µM, coculture fibroblast: H6231 | – | – | – | – | – | 0.6232 | 0.6072 | 0.582 | 0.54505
1 µM, coculture fibroblast: HADF | – | – | – | – | – | 0.658 | 0.594 | 0.575 | 0.526
1 µM, coculture fibroblast: HCFa | – | – | – | – | – | 0.653 | 0.576 | 0.556 | 0.493
1 µM, coculture fibroblast: HCPF | – | – | – | – | – | 0.638 | 0.616 | 0.588 | 0.547
1 µM, coculture fibroblast: HHSteC | – | – | – | – | 0.777 | 0.772 | 0.712 | 0.677 | 0.613
1 µM, coculture fibroblast: HMF | – | – | – | – | 0.688 | 0.651 | 0.641 | 0.618 | 0.599
1 µM, coculture fibroblast: HPFa | – | – | – | – | 0.717 | 0.714 | 0.623 | 0.585 | 0.503
1 µM, coculture fibroblast: HUF | – | – | – | – | 0.595 | 0.567 | 0.535 | 0.51 | 0.501
1 µM, coculture fibroblast: Hs5 | – | – | – | – | 0.686 | 0.633 | 0.627 | 0.594 | 0.58
1 µM, coculture fibroblast: Hs27A | – | – | – | – | 0.729 | 0.768 | 0.663 | 0.643 | 0.561
1 µM, coculture fibroblast: Hs343T | – | – | – | – | 0.667 | 0.628 | 0.609 | 0.593 | 0.569
1 µM, coculture fibroblast: WS1 | – | – | – | – | 0.626 | 0.602 | 0.578 | 0.551 | 0.541
10 µM, coculture fibroblast: C12385 | 0.873 | 0.871 | 0.895 | 0.866 | 0.871 | 0.869 | 0.843 | 0.829 | 0.809
10 µM, coculture fibroblast: H6013 | 0.844 | 0.881 | 0.776 | 0.773 | 0.746 | 0.757 | 0.723 | 0.657 | 0.73
10 µM, coculture fibroblast: H6019 | 0.833 | 0.877 | 0.848 | 0.884 | 0.849 | 0.872 | 0.972 | 0.95 | 0.919
10 µM, coculture fibroblast: H6076 | 0.906 | 0.923 | 0.893 | 0.956 | 0.912 | 0.861 | 0.822 | 0.788 | 0.756
10 µM, coculture fibroblast: H6231 | 0.857 | 0.779 | 0.713 | 0.617 | 0.559 | 0.506 | 0.473 | 0.423 | 0.396
10 µM, coculture fibroblast: HADF | 0.918 | 0.819 | 0.873 | 0.857 | 0.821 | 0.845 | 0.824 | 0.805 | 0.828
10 µM, coculture fibroblast: HCFa | 0.91 | 0.847 | 0.911 | 0.852 | 0.8967 | 0.822 | 0.874 | 0.83 | 0.816
10 µM, coculture fibroblast: HCPF | 0.9031 | 0.865 | 0.849 | 0.798 | 0.738 | 0.696 | 0.654 | 0.607 | 0.588
10 µM, coculture fibroblast: HHSteC | 0.857 | 0.828 | 0.799 | 0.769 | 0.75 | 0.749 | 0.679 | 0.649 | 0.588
10 µM, coculture fibroblast: HMF | 0.856 | 0.818 | 0.84 | 0.83 | 0.823 | 0.789 | 0.768 | 0.719 | 0.702
10 µM, coculture fibroblast: HPFa | 0.865 | 0.811 | 0.768 | 0.734 | 0.715 | 0.703 | 0.643 | 0.608 | 0.54
10 µM, coculture fibroblast: HUF | 0.873 | 0.826 | 0.851 | 0.818 | 0.785 | 0.747 | 0.711 | 0.691 | 0.668
10 µM, coculture fibroblast: Hs5 | 0.876 | 0.823 | 0.793 | 0.74 | 0.733 | 0.69 | 0.691 | 0.663 | 0.656
10 µM, coculture fibroblast: Hs27A | 0.876 | 0.868 | 0.871 | 0.853 | 0.79 | 0.781 | 0.693 | 0.649 | 0.577
10 µM, coculture fibroblast: Hs343T | 0.7765 | 0.853 | 0.824 | 0.882 | 0.82 | 0.843 | 0.827 | 0.7292 | 0.775
10 µM, coculture fibroblast: WS1 | 0.84 | 0.88 | 0.875 | 0.842 | 0.793 | 0.796 | 0.75 | 0.8826 | 0.8703
